Assay: Maximum force required to withdraw tight PTFE tubes from coated balloons (friction)
Settings: lubricant layer 0.33 μg/mm^2 on balloons coated with paclitaxel 3.3 μg/mm^2; tight PTFE tube withdrawn after 24 h

Going from Calcium stearate to Magnesium caprylate, the “Maximum force (N)” value falls from 0.36 ± 0.09 N to 0.12 ± 0.03 N.

Magnesium oleate and Magnesium stearate are within error of each other in “Maximum force (N)” value: 0.16 ± 0.10 N for the first, 0.28 ± 0.20 N for the second.

Magnesium palmitate and Zinc stearate are within error of each other in “Maximum force (N)” value: 0.24 ± 0.11 N for the first, 0.30 ± 0.18 N for the second.
